Measurements reported in PubChem BioAssay AID1259405 (NCATS, 2018)
The deposit covers about 50,000 reagents; below is a part drawn at random. About 4,000 of all reagents (8%) were called active. 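Mouse siRNA library applied to hamster cells; one well for each siRNA.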 Unmarked entries are inactive. Reagents against one gene are numbered here.

Screen: 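Mouse-designed siRNAs used to find CHO productivity engineering targets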 (primary screen)
Cells: Chinese hamster CHO-K1 ovary cells with stable secreted eGFP expression
Knock-down reagent: single siRNA against mouse genes, 0.8 pmol siRNA per well (2 µl of 400 nM stock)
Time to read-out: 3 days
Measured: 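Per-well intracellular GFP measured by laser scanning cytometry, plus viability from ATP luminescence, each relative to plate median of non-targeting control wells, in %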
Scale: GFP, % of control: higher = more GFP per well, higher productivity; viability (ATP), % of control: higher = more viable cells (more ATP)
Call rule: 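a knock-down is called active if GFP reaches 120% or more of non-targeting control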

Gpr151 #1 — GFP, % of control: 86.5; viability (ATP), % of control: 37.3
Gpr151 #2 — GFP, % of control: 93; viability (ATP), % of control: 59.8
Gpr151 #3 — GFP, % of control: 81.9; viability (ATP), % of control: 85.4
P2rx5 #1 — GFP, % of control: 68.9; viability (ATP), % of control: 68.6
P2rx5 #2 — GFP, % of control: 105; viability (ATP), % of control: 60.2
P2rx5 #3 — GFP, % of control: 19.2; viability (ATP), % of control: 19.4
Lilrb4b #1 — GFP, % of control: 65.8; viability (ATP), % of control: 82.7
Lilrb4b #2 — GFP, % of control: 115; viability (ATP), % of control: 94.4
Lilrb4b #3 — GFP, % of control: 85.7; viability (ATP), % of control: 90.6
Chek2 #1 — GFP, % of control: 176 (active); viability (ATP), % of control: 124
Chek2 #2 — GFP, % of control: 74; viability (ATP), % of control: 66.1
Chek2 #3 — GFP, % of control: 94.4; viability (ATP), % of control: 90
Ttc22 #1 — GFP, % of control: 74.7; viability (ATP), % of control: 68.4
Ttc22 #2 — GFP, % of control: 106; viability (ATP), % of control: 64.6
Ttc22 #3 — GFP, % of control: 85.1; viability (ATP), % of control: 52.1
Or1e1c #1 — GFP, % of control: 118; viability (ATP), % of control: 70.8
Or1e1c #2 — GFP, % of control: 73.6; viability (ATP), % of control: 59.4
Or1e1c #3 — GFP, % of control: 58.3; viability (ATP), % of control: 111
Nudt12 #1 — GFP, % of control: 71.9; viability (ATP), % of control: 52.4
Nudt12 #2 — GFP, % of control: 79.4; viability (ATP), % of control: 77.8
Nudt12 #3 — GFP, % of control: 92.3; viability (ATP), % of control: 81.8
Chmp7 #1 — GFP, % of control: 159 (active); viability (ATP), % of control: 73.6
Chmp7 #2 — GFP, % of control: 111; viability (ATP), % of control: 86.2
Chmp7 #3 — GFP, % of control: 61.7; viability (ATP), % of control: 56.4
Chmp7 #4 — GFP, % of control: 91.2; viability (ATP), % of control: 89.5
Chmp7 #5 — GFP, % of control: 87.4; viability (ATP), % of control: 98.7
Chmp7 #6 — GFP, % of control: 125 (active); viability (ATP), % of control: 77.2

The list goes on; the last 3 above are carried over.
Chmp7 #4 — GFP, % of control: 91.2; viability (ATP), % of control: 89.5
Chmp7 #5 — GFP, % of control: 87.4; viability (ATP), % of control: 98.7
Chmp7 #6 — GFP, % of control: 125 (active); viability (ATP), % of control: 77.2
Wnt16 #1 — GFP, % of control: 66.8; viability (ATP), % of control: 75.2
Wnt16 #2 — GFP, % of control: 73.8; viability (ATP), % of control: 68.7
Wnt16 #3 — GFP, % of control: 78.4; viability (ATP), % of control: 79.5
Tfip11 #1 — GFP, % of control: 78.4; viability (ATP), % of control: 69.5
Tfip11 #2 — GFP, % of control: 68.3; viability (ATP), % of control: 72.9
Tfip11 #3 — GFP, % of control: 75.2; viability (ATP), % of control: 78.9
Fbxw21 #1 — GFP, % of control: 68.6; viability (ATP), % of control: 79.9
Fbxw21 #2 — GFP, % of control: 82.8; viability (ATP), % of control: 87.5
Fbxw21 #3 — GFP, % of control: 91.1; viability (ATP), % of control: 71.5
Tmem174 #1 — GFP, % of control: 75; viability (ATP), % of control: 127
Tmem174 #2 — GFP, % of control: 140 (active); viability (ATP), % of control: 61.3
Tmem174 #3 — GFP, % of control: 77.5; viability (ATP), % of control: 80.7
Stxbp1 #1 — GFP, % of control: 133 (active); viability (ATP), % of control: 54
Stxbp1 #2 — GFP, % of control: 36.7; viability (ATP), % of control: 31.6
Stxbp1 #3 — GFP, % of control: 78.7; viability (ATP), % of control: 71.4
